Reference: article PMC8546589

Protein sequences, listed by entry. Tags and fused reporters are not part of them. Lines headed by an entry give the natural chain unless they say otherwise; changes in a name come on top.
UniProt C4LTS8: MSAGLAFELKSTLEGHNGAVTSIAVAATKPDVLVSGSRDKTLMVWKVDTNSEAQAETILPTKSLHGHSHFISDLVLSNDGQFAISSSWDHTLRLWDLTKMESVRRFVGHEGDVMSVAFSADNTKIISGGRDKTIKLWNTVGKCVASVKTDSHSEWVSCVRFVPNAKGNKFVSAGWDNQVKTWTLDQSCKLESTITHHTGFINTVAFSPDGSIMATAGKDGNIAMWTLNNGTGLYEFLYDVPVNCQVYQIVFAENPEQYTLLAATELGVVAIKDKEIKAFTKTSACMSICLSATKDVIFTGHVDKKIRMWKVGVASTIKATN

Tests used:
[1] = target: T1, Myc-EhRdRP2 (E. histolytica) (UniProt C4M631); assay: affinity purification with mass spectrometry; anti-c-Myc agarose IP from whole-cell lysate of E. histolytica lines overexpressing the Myc-tagged bait (EhAgo2-2 WT, its two mutants, EhRdRP1, EhRdRP2), 2 h at 4°C, six low-stringency washes; LC-MS/MS in triplicate; nonribosomal hits in at least 2 of 3 data sets, exclusive or ≥3-fold enriched against the Luc control
T1 sequence: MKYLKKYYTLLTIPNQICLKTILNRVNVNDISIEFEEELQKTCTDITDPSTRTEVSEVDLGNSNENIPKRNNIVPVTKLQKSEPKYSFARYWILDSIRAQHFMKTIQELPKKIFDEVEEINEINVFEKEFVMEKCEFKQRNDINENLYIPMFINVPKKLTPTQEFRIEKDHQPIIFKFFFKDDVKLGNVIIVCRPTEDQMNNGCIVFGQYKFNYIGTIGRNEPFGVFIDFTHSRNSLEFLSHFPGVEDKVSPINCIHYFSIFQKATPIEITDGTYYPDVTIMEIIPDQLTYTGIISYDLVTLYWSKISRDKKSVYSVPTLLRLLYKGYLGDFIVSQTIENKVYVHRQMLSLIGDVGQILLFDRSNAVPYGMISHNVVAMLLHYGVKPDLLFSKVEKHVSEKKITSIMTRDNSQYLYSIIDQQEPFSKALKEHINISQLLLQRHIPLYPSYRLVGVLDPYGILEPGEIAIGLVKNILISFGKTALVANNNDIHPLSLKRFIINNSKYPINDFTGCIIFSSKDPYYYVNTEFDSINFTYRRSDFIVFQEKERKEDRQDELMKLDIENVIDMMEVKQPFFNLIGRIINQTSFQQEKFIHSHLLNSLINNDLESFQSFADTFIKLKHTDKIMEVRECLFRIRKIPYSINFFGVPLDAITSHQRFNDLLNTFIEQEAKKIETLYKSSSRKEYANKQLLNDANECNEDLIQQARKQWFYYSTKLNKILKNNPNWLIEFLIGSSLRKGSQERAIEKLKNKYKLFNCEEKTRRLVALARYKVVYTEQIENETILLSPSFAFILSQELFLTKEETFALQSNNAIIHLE

[2] = target: T2, Myc-EhRdRP1 (E. histolytica) (UniProt C4M6W7); assay: as above
T2 sequence: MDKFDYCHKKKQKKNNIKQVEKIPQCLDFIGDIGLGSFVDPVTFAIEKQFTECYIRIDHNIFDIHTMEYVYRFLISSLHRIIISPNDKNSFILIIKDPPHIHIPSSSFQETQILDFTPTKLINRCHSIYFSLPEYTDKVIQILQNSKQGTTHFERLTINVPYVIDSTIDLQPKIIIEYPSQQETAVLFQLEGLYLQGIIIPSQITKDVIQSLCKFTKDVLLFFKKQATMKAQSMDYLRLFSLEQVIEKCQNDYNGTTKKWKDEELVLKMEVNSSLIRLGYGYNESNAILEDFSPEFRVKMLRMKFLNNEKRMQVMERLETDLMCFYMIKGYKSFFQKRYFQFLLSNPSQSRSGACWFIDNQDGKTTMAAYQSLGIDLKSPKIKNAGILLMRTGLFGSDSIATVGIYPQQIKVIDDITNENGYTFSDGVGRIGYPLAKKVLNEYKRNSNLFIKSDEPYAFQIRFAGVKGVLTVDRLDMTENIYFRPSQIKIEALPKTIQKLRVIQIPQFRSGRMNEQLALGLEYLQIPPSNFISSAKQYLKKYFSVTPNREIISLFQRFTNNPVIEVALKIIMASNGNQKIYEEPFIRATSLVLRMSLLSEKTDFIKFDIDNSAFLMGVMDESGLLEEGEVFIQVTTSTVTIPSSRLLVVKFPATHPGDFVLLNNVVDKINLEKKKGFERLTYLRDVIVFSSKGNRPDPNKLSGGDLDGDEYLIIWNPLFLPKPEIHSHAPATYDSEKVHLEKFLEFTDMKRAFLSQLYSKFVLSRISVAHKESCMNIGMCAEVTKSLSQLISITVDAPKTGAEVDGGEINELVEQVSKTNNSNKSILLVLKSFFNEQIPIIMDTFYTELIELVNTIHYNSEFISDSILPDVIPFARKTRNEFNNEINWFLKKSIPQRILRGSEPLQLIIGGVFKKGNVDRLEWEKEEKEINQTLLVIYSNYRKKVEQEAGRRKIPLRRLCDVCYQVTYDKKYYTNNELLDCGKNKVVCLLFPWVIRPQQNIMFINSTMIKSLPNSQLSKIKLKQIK

[3] = target: Myc-GNB2L1 (E. histolytica) (UniProt C4LTS8); assay: affinity purification with mass spectrometry; anti-c-Myc agarose IP from whole-cell lysate of E. histolytica lines overexpressing Myc-NAP07, Myc-NAP12, Myc-EBP-1, Myc-GNB2L1 or Myc-Tudor-like protein; LC-MS/MS in duplicate; hits in both replicates and exclusive against the Luc control
[4] = target: T3, Myc-NAP12 (E. histolytica) (UniProt C4M8H9); assay: as above
T3 sequence: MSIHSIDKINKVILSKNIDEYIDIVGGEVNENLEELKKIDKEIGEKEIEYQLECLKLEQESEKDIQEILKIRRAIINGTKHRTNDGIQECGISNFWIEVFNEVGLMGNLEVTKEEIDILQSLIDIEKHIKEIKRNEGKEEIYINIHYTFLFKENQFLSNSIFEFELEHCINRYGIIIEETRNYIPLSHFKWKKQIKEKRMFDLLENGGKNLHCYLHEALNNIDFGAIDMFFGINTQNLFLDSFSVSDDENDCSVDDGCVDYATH

[5] = target: T4, Myc-EBP-1 (E. histolytica) (UniProt C4M5C4); assay: as above
T4 sequence: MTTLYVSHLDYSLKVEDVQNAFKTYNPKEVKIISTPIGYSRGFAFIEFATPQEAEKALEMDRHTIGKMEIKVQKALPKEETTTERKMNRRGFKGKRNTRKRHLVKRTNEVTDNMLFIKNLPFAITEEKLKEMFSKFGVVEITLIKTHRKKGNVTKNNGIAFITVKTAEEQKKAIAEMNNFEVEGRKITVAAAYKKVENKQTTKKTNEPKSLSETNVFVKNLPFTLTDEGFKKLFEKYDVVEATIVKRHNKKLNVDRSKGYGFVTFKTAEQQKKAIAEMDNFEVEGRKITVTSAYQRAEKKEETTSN

[6] = target: T5, Myc-NAP07 (E. histolytica) (UniProt C4M608); assay: as above
T5 sequence: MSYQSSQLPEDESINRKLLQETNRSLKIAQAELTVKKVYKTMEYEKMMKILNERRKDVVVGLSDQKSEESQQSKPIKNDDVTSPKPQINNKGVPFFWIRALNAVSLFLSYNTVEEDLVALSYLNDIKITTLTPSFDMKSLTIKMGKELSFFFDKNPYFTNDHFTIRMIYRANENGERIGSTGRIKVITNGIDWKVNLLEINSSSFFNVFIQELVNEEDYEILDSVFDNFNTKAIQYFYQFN

Measured: binding

B1: Tudor-like protein (endogenous) (protein, UniProt C4M0A8 1-861)
chain: MPAQNTQKKDLSKKVEKKPESEPKKEKKTFTAFVAKVKSNNSLTLSSKKDDKRSTVVLAYVDLPRYDAKEKKEEAFAYETNEILRKKLVTGKEVKFEVVSEHQGIPKAVVPFVRKENIVCTLIESGYASLKIKGKGKEFSQYFDAEQKAKDSHRGIFSEDMIKIAKKRPENIFFNEKEISELKGKTIQGHIKRVEAPSHYIIEDTNRRRFKVVLYGVNQMLRYNTEKDVFDFDDDAKDAMKYINRSFNQRDVTVKVIETSQRVAYAQLSVEKKDVAEELLRSGFVVCSKLENATEEIKQKYQAAEKEAKKEKKARWTEFDQAAEDAIIAKRQQRLKELEDRRKNAKIISGAEIIYIGNHIKAKKGNEEYNIHLASVRPVFKKNDKEFNDLVQFRIKECLRKLIVGKKFEAKECYKRSFTKEDKTIEEVFYDVYASGKNVAVTLIKEGLVVLEKTRDEFYQSFDYKLLSETPKGEYKEKVVTQYPAEKRESIKDVFLNNSFNCIVERVINVCKYVIYIPEKDCRMTVVLSHCRIPRDDENEELKKFNEESKAAVRALFGLNEVTVDFREFFKGNFCVDILSKKFDLCDLVLSKAYAQFSGRDIPENIAEMKENQEGIYKFAGAKKEGESKPVRPVKVVKEVHREIKFGEGKNVYITGFDGSMIYYYEKVADAKFIEELSNKLKKCNKGSVEQKDGQKCVVEIKGVQYRAIITKAVPTANVVKCIDTGAVIVCGKNKLKPLKEEYENIEVTVKSIALAGVKTLVRGKDVDFDAMINAVSSFFNKEATMFVATINDKEVAKVVVGDVCINNMLIEEGLSILDRFFNDNSDWGRAMTSAQSAAKDKHLNVWRYGEIDDDEEKDKH
binds: [1] | [2] | [3] | [4] | [5] | [6]

Results are given in words; binding and its absence hold for the method and conditions named. In cells and extracts the contact can be indirect. A yes stands for co-enrichment or nearness to the bait. Other partners may have been found. For part of these data: Where a sequence is shown, tags or fusion partners need not be part of it.
